From patent publication US20160194696

Tested on: PvuRts1I
Assay: enzyme reaction in vitro
Conditions: RT 2 h, purified recombinant protein, protein details: New England Biolabs

With “GGTTGGACTCAAGACGATACTTACCGGATAAGGCGCAATTAGATTACTTAACCT (double strand) [hmC/hmC]” the “activity on this sequence” value (5hmC at top position 20 and bottom position 13 (SEQ 1 / SEQ 3; listing omits the modified base) [top 20 (5hmC), bottom 13 (5hmC)], 10-fold serial dilutions from 110 ng/ul, 32 and 22 bp products, letters built from the parent sequence and the stated change) was “active”.

For “GGTTGGACTCAAGACGATACTTACCGGATAAGGCGCAATTAGATTACTTAACCT (double strand) [hmC/C]”, the “activity on this sequence” value (5hmC at top position 20 (SEQ 1 / SEQ 5) [top 20 (5hmC)], similar activity to hmC/hmC at highest concentration, letters built from the parent sequence and the stated change, variant of hmC/hmC) was “active”.

“GGTTGGACTCAAGACGATACTTACCGGATAAGGCGCAATTATATTACTTAACCT (double strand) [hmC/nonC]” was tested, and the “activity on this sequence” value (5hmC at top position 20 (SEQ 6 / SEQ 7) [top 20 (5hmC)], similar activity to hmC/hmC at highest concentration, no second C needed, letters built from the parent sequence and the stated change, variant of hmC/hmC) was “active”.

With “GGTTGGACTCAAGACGATACTTACCGGATAAGGCGCAATTAGATTACTTAACCT (double strand) [mC/C]” the “activity on this sequence” value (5mC at top position 20 (SEQ 2 / SEQ 5), partial non-specific digestion, variant of hmC/hmC) was “less active”.

“GGTTGGACTCAAGACGATACTTACCGGATAAGGCGCAATTAGATTACTTAACCT (double strand) [hmC/mC]” was tested, and the “activity on this sequence” value (5hmC at top position 20, 5mC at bottom position 13 (SEQ 1 / SEQ 4) [top 20 (5hmC), bottom 13 (5mC)], similar activity to hmC/hmC at highest concentration, letters built from the parent sequence and the stated change, variant of hmC/hmC) was “active”.

In the case of “GGTTGGACTCAAGACGATACTTACCGGATAAGGCGCAATTAGATTACTTAACCT (double strand) [mC/mC]”, the “activity on this sequence” value (5mC at top position 20 and bottom position 13 (SEQ 2 / SEQ 4), partial non-specific digestion, variant of hmC/hmC) is reported as “less active”.

The exact form of at least one protein or probe is not confirmed. Weaker means in comparison with the reference protein, sequence or condition of that experiment.
